From patent publication US10647739B2, “Flavonoids O-A-glucosylated on the B cycle, method for the production thereof and uses” (Institut National de la Recherche Agronomique, priority 2014, dated 2020)
Some entries share one result that the patent states for a list of compounds.

Test: apigenin glucosylation acceptor reaction with recombinant glucansucrases (microplate screening)
Format: biochemical
Conditions: sucrose 146 mM, apigenin 2.5 mM, 3% DMSO, 30° C., 24 h; HPLC-UV 340 nm peak areas; listed as DSR-S (vardelΔ4N S512C)
Experimental: The enzymatic extracts obtained are used to carry out the flavonoid glucosylation enzymatic screening reactions. The enzymatic activity of each centrifuged cell lysate is evaluated in the microplate format, by final weight after 30 minutes incubation in the presence of a final concentration of 146 mM of sucrose, by assaying the reducing sugars with 3,5-dinitrosalicylic acid (DNS). Finally, after dilution in ultrapure water, the absorbance is read at 540 nm.
The flavonoid acceptor reactions are then carried out in deep-well microplates, in a volume of 300 μl, at final concentrations of sucrose of 146 mM and of flavonoid of 2.5 mM (apigenin) or 5 mM (naringenin) (initially dissolved in 100% DMSO), and 140 μl of centrifuged cell lysate.
The final DMSO concentration in the reaction medium is 3% (v/v).
The incubation is carried out at 30° C. and at 700 rpm. […]
The flavonoid glucosylation efficiency was determined from the following formula: Glucosylation efficiency=(Σ(area of the peak of glucosylated flavonoid(s)))/(Σ(area of the peak of glucosylated flavonoid(s))+area of the peak of residual aglycone flavonoid)×100
The flavonoid glucosylation efficiencies, expressed as a percentage, were calculated from the areas of the peaks of the various products analyzed, as described in example 1, by HPLC with a UV detector (340 nm) after 24 h of reaction.

B1: DSR-S vardelΔ4N S512C: mutant of truncated DSR-S, SEQ ID NO: 10 (protein)
chain: TQQVSGKYVEKDGSWYYYFDDGKNAKGLSTIDNNIQYFYESGKQAKGQYVTIDNQTYYFDKGSGDELTGLQSIDGNIVAFNDEGQQIFNQYYQSENGTTYYFDDKGHAATGIKNIEGKNYYFDNLGQLKKGFSGVIDGQIMTFDQETGQEVSNTTSEIKEGLTTQNTDYSEHNAAHGTDAEDFENIDGYLTASSWYRPTGILRNGTDWEPSTDTDFRPILSVWWPDKNTQVNYLNYMADLGFISNADSFETGDSQSLLNEASNYVQKSIEMKISAQQSTEWLKDAMAAFIVAQPQWNETSEDMSNDHLQNGALTYVNSPLTPDANSNFRLLNRTPTNQTGEQAYNLDNSKGGFELLLANQEDNSNVVVEAEQLNWLYYLMNFGTITANDADANFDGIRVDAVDNVDADLLQIAADYFKLAYGVDQNDATANQHLSILEDWSHNDPLYVTDQGSNQLTMDDYVHTQLIWSLTKSSDIRGTMQRFVDYYMVDRSNDSTENEAIPNYSFVRAHDCEVQTVIAQIVSDLYPDVENSLAPTTEQLAAAFKVYNEDEKLADKKYTQYNMASAYAMLLTNKDTVPRVYYGDLYTDDGQYMATKSPYYDAINTLLKARVQYVAGGQSMSVDSNDVLTSVRYGKDAMTASDTGTSETRTEGIGVIVSNNAELQLEDGHTVTLHMGAAHKNQAYRALLSTTADGLAYYDTDENAPVAYTDANGDLIFTNESIYGVQNPQVSGYLAVWVPVGAQQDQDARTASDTTTNTSDKVFHSNAALDSQVIYEGFSNFQAFATDSSEYTNVVIAQNADQFKQWGVTSFQLAPQYRSSTDTSFLDSIIQNGYAFTDRYDLGYGTPTKYGTADQLRDAIKALHASGIQAIADWVPDQIYNLPEQELATVTRTNSFGDDDTDSDIDNALYVVQSRGGGQYQEMYGGAFLEELQALYPSLFKVNQISTGVPIDGSVKITEWAAKYFNGSNIQGKGAGYVLKDMGSNKYFKVVSNTEDGDYLPKQLTNDLSETGFTHDDKGIIYYTLSGYRAQNAFIQDDDNNYYYFDKTGHLVTGLQKINNHTYFFLPNGIELVKSFLQNEDGTIVYFDKKGHQVFDQYITDQNGNAYYFDDAGVMLKSGLATIDGHQQYFDQNGVQVKDKFVIGTDGYKYYFEPGSGNLAILRYVQNSKNQWFYFDGNGHAVTGFQTINGKKQYFYNDGHQSKGEFIDADGDTFYTSATDGRLVTGVQKINGITYAFDNTGNLITNQYYQLADGKYMLLDDSGRAKTGFVLQDGVLRYFDQNGEQVKDAIIVDPDTNLS
modifications: Leuconostoc mesenteroides
  apigenin glucosylation efficiency: greater than 5%
